# Primary screen of a compound library

The chains behind the UniProt entries cited, without tags or fusion partners. Residues count along the entry.
UniProt Q4DA54, 1-478: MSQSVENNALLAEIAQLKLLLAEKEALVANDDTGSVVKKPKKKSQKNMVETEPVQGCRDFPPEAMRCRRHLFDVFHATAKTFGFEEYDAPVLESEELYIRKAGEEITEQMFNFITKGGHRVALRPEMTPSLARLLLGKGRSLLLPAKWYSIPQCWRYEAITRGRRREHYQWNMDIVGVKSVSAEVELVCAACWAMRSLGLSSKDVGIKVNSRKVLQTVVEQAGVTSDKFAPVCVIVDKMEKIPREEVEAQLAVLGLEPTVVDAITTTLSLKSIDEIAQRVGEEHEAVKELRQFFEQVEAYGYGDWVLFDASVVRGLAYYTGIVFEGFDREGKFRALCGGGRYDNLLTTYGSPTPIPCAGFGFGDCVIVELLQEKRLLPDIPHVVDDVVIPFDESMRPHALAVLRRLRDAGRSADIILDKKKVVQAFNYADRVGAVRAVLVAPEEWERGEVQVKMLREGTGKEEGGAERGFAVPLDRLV
UniProt P9WNZ1, whole entry: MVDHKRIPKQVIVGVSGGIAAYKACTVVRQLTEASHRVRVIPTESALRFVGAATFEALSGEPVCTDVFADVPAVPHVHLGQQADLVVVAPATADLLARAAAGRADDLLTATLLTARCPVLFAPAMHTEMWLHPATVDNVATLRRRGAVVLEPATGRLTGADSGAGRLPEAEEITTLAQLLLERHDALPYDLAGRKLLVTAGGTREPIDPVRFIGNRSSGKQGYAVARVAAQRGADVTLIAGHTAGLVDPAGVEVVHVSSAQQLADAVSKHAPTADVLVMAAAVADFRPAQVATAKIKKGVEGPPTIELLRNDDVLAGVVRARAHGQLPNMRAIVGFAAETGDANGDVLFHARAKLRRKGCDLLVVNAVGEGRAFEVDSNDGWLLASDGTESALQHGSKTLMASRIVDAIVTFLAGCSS
UniProt A4I591, 1-473: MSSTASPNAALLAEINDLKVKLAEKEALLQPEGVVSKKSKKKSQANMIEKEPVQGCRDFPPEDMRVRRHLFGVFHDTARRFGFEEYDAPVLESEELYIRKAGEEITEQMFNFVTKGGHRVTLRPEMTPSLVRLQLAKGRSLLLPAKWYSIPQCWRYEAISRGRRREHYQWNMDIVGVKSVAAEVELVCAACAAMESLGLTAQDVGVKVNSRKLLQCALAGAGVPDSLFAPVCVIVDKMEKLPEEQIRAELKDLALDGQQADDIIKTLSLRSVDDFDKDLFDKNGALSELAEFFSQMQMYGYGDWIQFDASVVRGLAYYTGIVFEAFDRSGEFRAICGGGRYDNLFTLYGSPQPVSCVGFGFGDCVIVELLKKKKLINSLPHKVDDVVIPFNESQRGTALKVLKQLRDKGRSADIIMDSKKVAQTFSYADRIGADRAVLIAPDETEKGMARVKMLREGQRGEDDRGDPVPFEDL

Values are the deposited “Percent Effect”, in %. The controls that fix the scale are not given in the record; negative values are as filed. Compounds were drawn at random from those tested, without regard to their results. Two or more numbers in one place are separate tests of the same structure; such repeats can differ widely.

TcHisRS: 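Histidine-tRNA ligase, Trypanosoma cruzi CL Brener (UniProt Q4DA54). Enzyme assay of histidyl-tRNA synthetase; the read-out is not stated. Tested at 30 µM. Higher reads as stronger inhibition (inferred: compounds with an IC50 in retests scored well above the rest). Size under these conditions: about 69,000 compounds, about 31 of them at 50% or above in at least one test.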
Leishmania in macrophages: 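Cell assay of Leishmania donovani living inside macrophages; the read-out is not stated. Tested at 30 µM. Direction is inferred from retests: higher values go with stronger inhibition. Of about 69,000 compounds tested this way, about 1,000 (1.5%) reached 50% or more in at least one test.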
Toxoplasma: 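Assay of Toxoplasma gondii numbers, read through their beta-galactosidase reporter with a colour substrate. Tested at 10 µM. The record gives no direction; the compounds picked for IC50 retests had high values, so higher reads as fewer parasites. About 67,000 compounds were tested under these conditions; 0.38% (about 260) showed 50% or more at least once.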
CoaBC: 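Enzyme assay of CoaBC with a phosphate dye (Biomol Green) read at 650 nm. Target: Coenzyme A biosynthesis protein CoaBC, Mycobacterium tuberculosis (UniProt P9WNZ1). Concentration: 30 µM. Higher reads as stronger inhibition, judged from the few compounds that gave an IC50. Most strong results did not repeat in a second test. Of about 67,000 compounds tested this way, about 40 (0.06%) reached 50% or more in at least one test.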
LiHisRS: 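Enzyme assay of histidyl-tRNA synthetase; the read-out is not stated. Target: Histidine-tRNA ligase, Leishmania infantum (UniProt A4I591). Tested at 30 µM. The record gives no direction; compounds that gave an IC50 in retests scored well above the rest, so higher reads as stronger inhibition. The assay is labelled LdHisRS but filed under L. infantum. Size under these conditions: about 69,000 compounds, about 410 of them at 50% or above in at least one test.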

With CCCN1CCCC1c1ccc(C(=O)N2CCOCC2)s1 (stereo not given) the screen gave TcHisRS: 6.522%; Leishmania in macrophages: 29.29%; Toxoplasma: 12.19%; CoaBC: 3.271%; LiHisRS: 6.579%. For CN(CC(=O)NCC1CCCCC1)S(=O)(=O)c1cccnc1 the result was TcHisRS: 11.6%; Leishmania in macrophages: -4.053%; Toxoplasma: -3.098%; CoaBC: 3.694%; LiHisRS: 11.4%. With CN(Cc1ccc(F)cc1)Cc1cc2c(cc1Br)OCCO2 the screen gave TcHisRS: 6.878%; Leishmania in macrophages: 13.95%; Toxoplasma: -1.034%; CoaBC: 8.151%; LiHisRS: -4%. Cc1noc(C)c1CN1CCN(Cc2nc(C3CC3)no2)CC1 gave TcHisRS: 5.357%; Leishmania in macrophages: -11.26%; Toxoplasma: -0.4369%; CoaBC: 2.314%; LiHisRS: 7.527%.

With O=C(CCNC(=O)c1ccc(Cl)cc1)NCc1nc(C2CC2)no1 the screen gave TcHisRS: 5.195%; Leishmania in macrophages: 14.97%; Toxoplasma: 4.11%; CoaBC: 7.317%; LiHisRS: 13.33%. With Cc1nc(-c2cccs2)ccc1C(=O)N1CCN(CC(C)O)CC1 (stereo not given) the screen gave TcHisRS: 7.263%; Leishmania in macrophages: 23.94%; Toxoplasma: -1.509%; CoaBC: 1.21%; LiHisRS: -2.632%. CCc1nnc2n1CCN(Cc1ncc(-c3ccc(F)cc3)o1)C2 read TcHisRS: 4.142%; Leishmania in macrophages: 16.89%; Toxoplasma: -4.635%; CoaBC: 2.408%; LiHisRS: 14.29%. With Cn1ccnc1C1CCN(CCC2CCOC2)CC1 (stereo not given) the screen gave TcHisRS: 2.469%; Leishmania in macrophages: 11.09%; Toxoplasma: -15.16%; CoaBC: -0.2457%; LiHisRS: 12.9%.

With Cn1cccc1C(=O)N1C[C@H]2CN(CC3CC3)C(=O)[C@H]2C1 the screen gave TcHisRS: 4.124%; CoaBC: -0.9852%; LiHisRS: 4%. Result for CCc1nnc2n1CCN(Cc1csc(-c3cnn(C)c3)n1)C2 was TcHisRS: 3.252%; Leishmania in macrophages: -5.844%; Toxoplasma: -0.4653%; CoaBC: 0%; LiHisRS: 10.58%. Result for CC(NC(=O)CSCC#N)c1cccc(Cl)c1 (stereo not given) was TcHisRS: 5.78%; Leishmania in macrophages: 17.75%; Toxoplasma: -16.58%; CoaBC: -0.6519%; LiHisRS: 16.67%. CCc1nnc(CSc2ccccn2)o1 read TcHisRS: 4.762%; Leishmania in macrophages: -5.618%; Toxoplasma: 0.7156%; CoaBC: 2.686%; LiHisRS: 0%.

O=C(c1cncc(N2CCC3(CCNCC3)CC2)n1)N1CCCC1 gave TcHisRS: -1.245%; Leishmania in macrophages: -7.968%; Toxoplasma: 0%; CoaBC: -32.14%; LiHisRS: 18.45%. Result for CC(=O)NC1CCCN(C(=O)CNc2cccc(C)c2Cl)C1 (stereo not given) was TcHisRS: -15.87%; Leishmania in macrophages: -23.16%; Toxoplasma: -3.22%; CoaBC: -3.099%; LiHisRS: 0%. With CCc1cc(N2CCC3(CCCNC3=O)C2)nc(N2CCOCC2)n1 (stereo not given) the screen gave TcHisRS: 4.972%; Leishmania in macrophages: 31.7%; Toxoplasma: -1.072%; CoaBC: 4.854%; LiHisRS: -2.41%. With O=C(NCC(O)COc1ccccc1)C1(c2ccc(F)cc2)CC1 (stereo not given) the screen gave TcHisRS: 5.195%; Leishmania in macrophages: 24.7%; Toxoplasma: -0.5408%; CoaBC: 2.195%; LiHisRS: 16.67%.

With COCCNc1ccc(CC2CCCN(c3ncccn3)C2)nn1 (stereo not given) the screen gave TcHisRS: 2.825%; Leishmania in macrophages: -26.21%; Toxoplasma: -3.884%; CoaBC: 0.9685%; LiHisRS: 12.59%. For O=c1n(CC2CCCO2)nc(CC2CCNCC2)n1-c1ccccc1 (stereo not given) the result was TcHisRS: 1.622%; Leishmania in macrophages: -4.229%; Toxoplasma: 10.51%; CoaBC: 0.4545%; LiHisRS: 24.66%. With Cc1cc(NCCc2nc(C)c[nH]2)nc(-c2ccccc2O)n1 the screen gave TcHisRS: 4.464%; Leishmania in macrophages: 27.92%; Toxoplasma: 13.96%; CoaBC: 1.132%; LiHisRS: 17.7%. Result for CN(Cc1cccc(F)c1)Cc1nc2c(cnn2C)c(=O)[nH]1 was TcHisRS: -0.578%; Leishmania in macrophages: -6.241%; Toxoplasma: 2.493%; CoaBC: -1.173%; LiHisRS: -0.8772%.

Result for Cc1cc(C2CCCN2C(=O)NCc2cccc(F)c2)on1 (stereo not given) was TcHisRS: 6.224%; Leishmania in macrophages: 21.69%; Toxoplasma: -3.744%; CoaBC: -7.143%; LiHisRS: 18.45%. COCCOc1cccc(CNC(=O)CN2CCN(C)CC2C)c1 (stereo not given) gave TcHisRS: 3.207%; Leishmania in macrophages: 1.039%; Toxoplasma: 4.22%; CoaBC: 2.864%; LiHisRS: 5.505%. Result for Cc1nn(C)c(C)c1CN(C)C(=O)c1cc(NC(=O)C2CC2)n(C)n1 was TcHisRS: 0.8696%; Leishmania in macrophages: -4.248%; Toxoplasma: 51.38%; CoaBC: 8.466% and 20.55%; LiHisRS: 12.07%. COC(=O)c1sc(C(F)(F)F)cc1OC read TcHisRS: 6.931%; Leishmania in macrophages: 6.601%; Toxoplasma: -3.573%; CoaBC: 2.913%; LiHisRS: 11.9%.

With O=C(c1cccs1)N1CCC2(CC1)CN(c1cncnc1)C(=O)CO2 the screen gave TcHisRS: 6.863%; Leishmania in macrophages: 5.733%; Toxoplasma: -13.78%; CoaBC: 3.5%; LiHisRS: 26%. For Cc1ccc(NCc2cccc3cn[nH]c23)cc1OC1CCOC1 (stereo not given) the result was TcHisRS: 7.853%; Leishmania in macrophages: 0.5544%; Toxoplasma: 1.154%; CoaBC: -4.069%; LiHisRS: 13.79%. With Cc1ccc(C(=O)N2Cc3c(CN4CCCCC4)nn(C)c3C2)cc1F.O=C(O)C(F)(F)F the screen gave Leishmania in macrophages: 11.36%; Toxoplasma: -1.093%. Cc1cc2ccccc2n1CCC(=O)N1CCN(C)CC1C(N)=O (stereo not given) read TcHisRS: 2.571%; Leishmania in macrophages: -23.92%; Toxoplasma: -10.68%; CoaBC: -0.6849%; LiHisRS: 12.08%.

The first 2 entries again:

{"compound": "CCCN1CCCC1c1ccc(C(=O)N2CCOCC2)s1", "stereo": "stereo not given", "TcHisRS": 6.522, "Leishmania in macrophages": 29.29, "Toxoplasma": 12.19, "CoaBC": 3.271, "LiHisRS": 6.579}
{"compound": "CN(CC(=O)NCC1CCCCC1)S(=O)(=O)c1cccnc1", "TcHisRS": 11.6, "Leishmania in macrophages": -4.053, "Toxoplasma": -3.098, "CoaBC": 3.694, "LiHisRS": 11.4}

The values are deposited in ChEMBL (CHEMBL3988442, “University of Dundee, Small-Polar-MMV Screening Library” (2021)).